Test results from PMC5637157.
These are yes or no findings as the source states them, for the method shown. Binding seen in cells or lysates may run through a third protein. Some binding calls cover weakened binding; strength is not graded here.

Chains of the proteins cited; added tags and fusions are not shown.
UniProt P38606: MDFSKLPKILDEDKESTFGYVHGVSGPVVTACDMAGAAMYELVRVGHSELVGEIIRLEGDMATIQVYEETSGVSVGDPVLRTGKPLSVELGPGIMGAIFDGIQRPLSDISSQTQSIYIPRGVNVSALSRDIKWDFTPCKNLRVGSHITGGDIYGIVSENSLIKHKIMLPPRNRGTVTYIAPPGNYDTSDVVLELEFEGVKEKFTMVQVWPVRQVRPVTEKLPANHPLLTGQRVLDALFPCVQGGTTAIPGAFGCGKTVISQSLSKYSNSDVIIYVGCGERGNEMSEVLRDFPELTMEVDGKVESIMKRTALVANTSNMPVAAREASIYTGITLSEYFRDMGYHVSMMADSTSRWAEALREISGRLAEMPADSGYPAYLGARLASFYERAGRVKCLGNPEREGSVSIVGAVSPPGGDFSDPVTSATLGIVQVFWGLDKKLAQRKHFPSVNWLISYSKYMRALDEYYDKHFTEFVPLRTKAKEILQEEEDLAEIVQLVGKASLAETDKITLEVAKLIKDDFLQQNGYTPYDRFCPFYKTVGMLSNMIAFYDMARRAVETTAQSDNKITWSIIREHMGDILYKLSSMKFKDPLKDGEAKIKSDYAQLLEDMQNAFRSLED

Molecular target: V-ATPase catalytic subunit A (ATP6V1A) (human (endogenous in HEK293)) (UniProt P38606)
Assay: co-IP; endogenous ATP6V1A immunoprecipitated from lysates of HEK293 cells overexpressing murine Cish or CishΔSOCS box; cells treated with proteasome inhibitor MG132 for 5 hr before lysis; Cish detected by western blot; empty vector (pcDNA) as negative control

B1: murine Cish (cytokine-inducible SH2-containing protein), full sequence (protein, UniProt Q62225 1-257)
chain: MVLCVQGSCPLLAVEQIGRRPLWAQSLELPGPAMQPLPTGAFPEEVTEETPVQAENEPKVLDPEGDLLCIAKTFSYLRESGWYWGSITASEARQHLQKMPEGTFLVRDSTHPSYLFTLSVKTTRGPTNVRIEYADSSFRLDSNCLSRPRILAFPDVVSLVQHYVASCAADTRSDSPDPAPTPALPMSKQDAPSDSVLPIPVATAVHLKLVQPFVRRSSARSLQHLCRLVINRLVADVDCLPLPRRMADYLRQYPFQL
In the case of B1, the binding is reported as “binds”.
